Measurements from PubChem BioAssay AID1671190 (National Center for Advancing Translational Sciences (NCATS), 2021).
Several values for one entry are separate records, joined by “and”; a condition that tells them apart may be missing. Equal values may be shown once. Out of some 580,000 compounds screened, about 6,100 (1.1%) were called active. The shares of active, inactive and inconclusive entries below differ from those in the screen. Calls come from the whole dose curve; as a rule, active = well fitted inhibition curve with a large enough effect; inconclusive = small, poorly fitted or top-dose-only effect, or another doubt; inactive = no such curve, though single readings can be large or run the other way. Potencies of inconclusive entries are doubtful fits and often do not repeat.

Protein sequences, listed by entry. Tags and fused reporters are not part of them. Lines headed by an entry give the natural chain unless they say otherwise; changes in a name come on top.
UniProt P18054: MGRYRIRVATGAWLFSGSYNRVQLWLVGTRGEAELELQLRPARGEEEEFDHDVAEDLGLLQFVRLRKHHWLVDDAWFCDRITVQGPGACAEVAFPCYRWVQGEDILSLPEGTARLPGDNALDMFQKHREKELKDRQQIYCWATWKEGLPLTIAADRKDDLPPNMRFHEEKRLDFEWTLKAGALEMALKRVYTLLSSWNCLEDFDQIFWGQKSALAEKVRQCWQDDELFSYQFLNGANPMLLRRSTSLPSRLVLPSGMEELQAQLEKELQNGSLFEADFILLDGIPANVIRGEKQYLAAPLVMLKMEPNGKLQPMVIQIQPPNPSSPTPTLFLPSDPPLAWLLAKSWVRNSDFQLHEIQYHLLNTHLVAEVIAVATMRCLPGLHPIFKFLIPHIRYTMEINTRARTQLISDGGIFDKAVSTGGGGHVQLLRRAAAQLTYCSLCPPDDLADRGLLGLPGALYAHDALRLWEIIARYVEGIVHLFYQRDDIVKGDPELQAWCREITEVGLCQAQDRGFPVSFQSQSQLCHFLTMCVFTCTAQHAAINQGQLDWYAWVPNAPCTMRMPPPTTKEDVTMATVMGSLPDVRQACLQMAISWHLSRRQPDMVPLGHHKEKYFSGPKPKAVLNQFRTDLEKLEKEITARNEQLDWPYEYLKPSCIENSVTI

What follows are compounds tested against Polyunsaturated fatty acid lipoxygenase ALOX12 (Homo sapiens) (UniProt P18054) (assay: Primary qHTS assay for inhibitors of human arachidonate 12S-lipoxygenase (ALOX12): Round 2). Details: purified 12hLO, xylenol orange hydroperoxide absorbance; series mostly up to 108 µM.
Summary of the method: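 Purified human 12hLO at 150 nM in 25 mM Hepes, 0.01% Triton X-100, pH 7.0, preincubated 15 min at room temperature with compound. Reaction started with 40 uM arachidonic acid, 30 min at room temperature. Hydroperoxide measured by Fe-xylenol orange, 573/405 nm absorbance ratio.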
Potency is the fitted concentration of half-maximal effect.

| Compound | Potency |
| --- | --- |
| Cc1cccc2cc(COC(=O)c3ccco3)c(=O)[nH]c12 | inconclusive: 31.6 µM [inhibitor, single point] and inconclusive: 44.7 µM [inhibitor, partial curve, poor fit] |
| CN1/C(=C/C=C(/C#N)C(N)=O)C(C)(C)c2ccccc21 | inactive |
| CCCCc1cc(=O)oc2cc(OCC(=O)NCc3ccc(S(N)(=O)=O)cc3)ccc12 | inconclusive: 100 µM [inhibitor, partial curve, poor fit] |
| Cc1ccccc1C(=O)N1CCN(C(c2ccccc2)c2ccccc2)CC1 | inconclusive: 112 µM [inhibitor, single point] |
| COc1ccccc1NC1=C(Cl)C(=O)N(C2CCCCC2)C1=O | inconclusive: 35.5 µM [inhibitor, partial curve, poor fit] |
| N#CC1=C2N=C(N)c3ccccc3N2C2=C(C(=O)CCC2)C1c1ccc(F)cc1 (stereo not drawn) | inactive |
| O=C(NCCN1CCC(n2c(=O)[nH]c3ccccc32)CC1)c1ccc(F)cc1 | active: 35.5 µM |
| Cc1ccc(C(=O)NC2CC2)cc1NC(=O)NC1CCCC1 | inactive |
| CC(=O)c1c(C)[nH]c(C(=O)C(C)Sc2ccccc2Cl)c1C (stereo not drawn) | inconclusive: 3.55 µM [inhibitor, full curve, poor fit] |
| Oc1c(Cl)cc(Cl)cc1C1Nc2ccccc2-n2cccc21 (stereo not drawn) | inactive |
| CC(C=CC1=C(C)CCCC1(C)C)=CC=CC(C)=CC(=O)O | inconclusive: 50.1 µM [inhibitor, partial curve, poor fit] and inconclusive: 112 µM [inhibitor, single point] |
| O=C1CSc2ccc(C(=O)N3CCCCC3)cc2N1 | inconclusive: 44.7 µM [inhibitor, partial curve, poor fit] |
| CSCCC1C(=O)OC2(C)CC(C)(C)NC(=S)N12 (stereo not drawn) | inconclusive: 89.1 µM [inhibitor, single point] |
| CCCN(CCC)CCNC(=O)c1cc(Sc2ccc(Cl)cc2)nc2ccccc12 | inconclusive: 0.0794 µM [inhibitor, full curve, poor fit] |
| O=C(Cc1ccsc1)N1CCC(c2nc3c(nnn3Cc3cccc(Cl)c3)c(=O)[nH]2)CC1 | inconclusive: 44.7 µM [inhibitor, partial curve, poor fit] |
| COc1ccc(NC(=O)Cc2ccc(N(Cc3ccc(C)cc3)C(=O)c3ccco3)cc2)cc1 | inactive |
| O=C(NC1C[C@H]2CC[C@@H](C1)N2C(=O)C1CCC1)c1ccncc1 (stereo partly drawn) | inactive |
| NC(=S)N/N=C/c1ccc(Cl)cc1Cl | inconclusive: 10 µM [inhibitor, partial curve, poor fit] |
| CCOc1ccc(NC(=O)C2CCN(c3ccc(C#N)cn3)CC2)cc1 | inconclusive: 89.1 µM [inhibitor, partial curve, poor fit] |
| COc1cccc(C(=O)NC(=S)Nc2ccc(Cl)cc2C(=O)O)c1 | inconclusive: 20 µM [inhibitor, partial curve, poor fit] |
| Cc1ccc(S(=O)(=O)NCCCCCC(=O)Nc2nccs2)cc1 | inconclusive: 39.8 µM [inhibitor, partial curve, poor fit] |

Compounds from the list above that have fluorine, in the order listed:

| Compound | Potency |
| --- | --- |
| N#CC1=C2N=C(N)c3ccccc3N2C2=C(C(=O)CCC2)C1c1ccc(F)cc1 (stereo not drawn) | inactive |
| O=C(NCCN1CCC(n2c(=O)[nH]c3ccccc32)CC1)c1ccc(F)cc1 | active: 35.5 µM |

Following part

| Compound | Potency |
| --- | --- |
| Cc1ccc(NC(=O)C2CC(Cl)=CCC2C(=O)O)c([N+](=O)[O-])c1 (stereo not drawn) | inconclusive: 100 µM [inhibitor, partial curve, poor fit] |
| Cc1ccc(CN(C)C(=O)C2CCCN2C(=O)c2cccs2)o1 (stereo not drawn) | inactive |
| c1ccc2c(CNC3CC3)cccc2c1 | inactive |
| CCc1ccc(C(=O)NCc2ccc(C#N)cc2)o1 | inconclusive: 100 µM [inhibitor, single point] |
| CCCc1nnc(NC(=O)CS(=O)(=O)c2ccccc2)s1 | inactive |
| Cc1ccc(S(=O)(=O)N2[C@@H](c3ccccc3F)C(C(=O)O)=CC[C@H]2c2ccc(Cl)c(Cl)c2)cc1 | inconclusive: 11.2 µM [inhibitor, full curve, poor fit] |
| CC(=O)NC(Cc1ccccc1)C(=O)NC1CCN(C(=O)c2ccc([N+](=O)[O-])cc2)CC1 (stereo not drawn) | inactive |
| Cc1sc2ncn(CC(=O)NCc3ccco3)c(=O)c2c1-c1ccc(F)cc1 | inconclusive: 44.7 µM [inhibitor, partial curve, poor fit] |
| O=C(NNC(=S)Nc1ccccc1Cl)C1CC1 | inactive |
| S=C(Nc1ccc(Oc2ccccc2)cc1)N1CCOCC1 | inactive |
| COc1ccccc1CCC(=O)N1CC(c2nnc(-c3ccncc3)o2)C2(CCOCC2)C1 (stereo not drawn) | inconclusive: 11.2 µM [inhibitor, full curve, poor fit] |
| Cc1cc(C)nc(NS(=O)(=O)c2ccc(NC(=S)NC(=O)C3CCCC3)cc2)n1 | inconclusive: 63.1 µM [inhibitor, partial curve, poor fit] |
| CCOC(=O)CNC(=O)CSc1ccc2nnc(-c3ccc(F)cc3)n2n1 | inconclusive: 70.8 µM [inhibitor, partial curve, poor fit] |
| Cc1ccc(S(=O)(=O)c2cn(CC(=O)Nc3ccc4c(c3)OCO4)c3ccc(F)cc3c2=O)cc1 | inconclusive: 63.1 µM [inhibitor, partial curve, poor fit] |
| COc1ccc(CNC(=O)CN2CCN(C(c3ccccc3)c3ccccc3)CC2)cc1 | inconclusive: 126 µM [inhibitor, single point] |
| CC(Oc1cccc(Cl)c1)C(=O)Nc1ccc(S(=O)(=O)Nc2ncccn2)cc1 (stereo not drawn) | inactive |
| COc1ccc(CCNC(=O)C(=O)Nc2nccs2)cc1OC | inconclusive: 15.8 µM [inhibitor, partial curve, poor fit] |
| c1ccc(Cc2noc(CN3CCN(C4CCc5ccccc5C4)CC3)n2)cc1 (stereo not drawn) | inconclusive: 50.1 µM [inhibitor, partial curve, poor fit] |
| COc1ccc(OCc2nnc(SCC(=O)N(C)Cc3ccccc3)n2N)cc1 | inconclusive: 89.1 µM [inhibitor, partial curve, poor fit] |
| COCCn1c(=O)c(-c2cccs2)nc2cncnc21 | inconclusive: 70.8 µM [inhibitor, partial curve, poor fit] |
| CCN1CC2(CCC1=O)CCN(Cc1ccc(C(F)(F)F)c(F)c1)CC2 | inactive |

| Compound | Potency |
| --- | --- |
| COc1cccc(-c2nc(CC(=O)NC3CCN(Cc4ccccc4)CC3)cs2)c1 | inconclusive: 5.01 µM [inhibitor, single point] |
| COc1ccc(Cl)cc1C(=O)Nc1ccc(NC(C)=O)cc1 | inconclusive: 141 µM [inhibitor, single point] |
| O=C(CCNc1c(-c2cccc(F)c2)nc2cnccn12)NCc1ccc(Cl)cc1 | inconclusive: 50.1 µM [inhibitor, partial curve, poor fit] |
| COc1ccccc1NC(=O)c1cc2c(n1C)CCN(Cc1ccc(F)cc1)C2 | inactive |
| CCOC(=O)CS(=O)(=O)C(c1ccccc1)S(=O)(=O)CC(=O)OCC | inconclusive: 79.4 µM [inhibitor, single point] |
| CCN1CCN(C(c2ccccc2)c2nnnn2Cc2ccc3c(c2)OCO3)CC1 (stereo not drawn) | inconclusive: 20 µM [inhibitor, partial curve, poor fit] |
| CCCSc1nc2c(c(=O)n(C)c(=O)n2C)n1Cc1ccccc1Cl | inactive |
| COc1c(Br)cc(Br)cc1/C=N/n1c(C)nnc1C | inactive |
| O=C(c1ccc2nc(-c3ccc(F)cc3)cn2c1)N1C[C@@H]2CCCN[C@@H]2C1 | inconclusive: 25.1 µM [inhibitor, full curve, poor fit] |
| C=Cc1c(C)c2cc3nc(cc4[nH]c(cc5nc(cc1[nH]2)C(C)=C5CCC(=O)O)c(CCC(=O)OC)c4C)[C@@]1(C)C3=CC=C(C(=O)OC)[C@H]1C(=O)OC | inconclusive: 6.85 µM [inhibitor, partial curve, poor fit] |
| CC1=C(C(=O)Nc2ccc(Cl)cc2)C2(CCCCC2)C(C(N)=O)C(=S)N1 (stereo not drawn) | inconclusive: 50.1 µM [inhibitor, partial curve, poor fit] |
| CN1CCC(N2CCN(C3CN(Cc4cn(Cc5ccc(F)cc5)nn4)S(=O)(=O)C3)CC2)CC1 (stereo not drawn) | inconclusive: 10 µM [inhibitor, full curve, poor fit] |
| CCCn1c(=N)n(CC(=O)c2ccc(Cl)c(Cl)c2)c2ccccc21 | inconclusive: 31.6 µM [inhibitor, partial curve, poor fit] |
| c1ccc(Cc2nc(-c3ccc4c(c3)OCCCO4)cs2)cc1 | inconclusive: 100 µM [inhibitor, single point] |
| Cc1[nH][nH]c(=O)c1C(c1c(C)[nH][nH]c1=O)c1cn(Cc2ccccc2Cl)c2ccccc12 | inconclusive: 89.1 µM [inhibitor, partial curve, poor fit] |
| Clc1ccc2c(NCc3ccccn3)ccnc2c1 | inactive |
| Cc1ccc(C)c(NC(=O)N2CCN(c3nc(C)cc(N4CCOCC4)n3)CC2)c1 | inconclusive: 158 µM [inhibitor, single point] |
| Cc1ccc(S(=O)(=O)N2CCN(C(=O)CCC(=O)Nc3ccc(Br)c(C)c3)CC2)cc1 | inconclusive: 0.631 µM [inhibitor, full curve, poor fit] |
| N#Cc1ccc(OCC(=O)NN2Cc3ccccc3C2=N)cc1 | inconclusive: 112 µM [inhibitor, single point] |
| NC(=O)NC(c1ccc(Cl)cc1)c1ccccc1Cl (stereo not drawn) | inconclusive: 112 µM [inhibitor, partial curve, poor fit] |
| COc1ccc(/C=C2\SC(=S)N(C(C)C(=O)NC3C=CS(=O)(=O)C3)C2=O)cc1 (stereo not drawn) | inconclusive: 44.7 µM [inhibitor, partial curve, poor fit] |
